By UniProt entry, the sequences of proteins in these tests, tags left out. Where a name states a change or a piece, a line headed by the entry shows the natural chain unless it says otherwise.
UniProt O94782: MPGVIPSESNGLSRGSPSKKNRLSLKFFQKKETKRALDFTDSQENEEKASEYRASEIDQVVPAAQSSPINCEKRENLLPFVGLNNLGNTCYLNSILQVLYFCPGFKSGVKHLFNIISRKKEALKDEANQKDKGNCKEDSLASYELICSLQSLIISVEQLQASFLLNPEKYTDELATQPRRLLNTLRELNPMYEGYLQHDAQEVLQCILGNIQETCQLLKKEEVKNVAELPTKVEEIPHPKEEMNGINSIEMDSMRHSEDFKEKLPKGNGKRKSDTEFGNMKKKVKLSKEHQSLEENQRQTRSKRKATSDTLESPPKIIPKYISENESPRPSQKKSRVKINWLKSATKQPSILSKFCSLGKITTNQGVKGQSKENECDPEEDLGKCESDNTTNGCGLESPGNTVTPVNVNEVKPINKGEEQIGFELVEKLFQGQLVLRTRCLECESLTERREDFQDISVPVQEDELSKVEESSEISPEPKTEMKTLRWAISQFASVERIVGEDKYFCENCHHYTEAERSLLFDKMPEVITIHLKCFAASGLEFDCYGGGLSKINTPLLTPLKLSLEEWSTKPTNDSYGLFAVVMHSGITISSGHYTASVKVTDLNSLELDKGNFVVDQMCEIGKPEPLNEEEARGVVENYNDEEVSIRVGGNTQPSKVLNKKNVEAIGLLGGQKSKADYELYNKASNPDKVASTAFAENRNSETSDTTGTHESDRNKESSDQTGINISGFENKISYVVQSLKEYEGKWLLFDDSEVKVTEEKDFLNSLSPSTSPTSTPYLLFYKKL

Several values for one entry are separate records, joined by “and”; a condition that tells them apart may be missing. Identical values can stand only once. Among all 390,000 compounds or so, about 910 (0.23%) were called active. Inconclusive results, whose numbers are uncertain, are shown with a selection of clear calls. The call rests on the fitted dose curve; in most records, active means well fitted inhibition curve with a large enough effect; inconclusive means small, poorly fitted or top-dose-only effect; inactive means no such curve, though single readings can be large or run the other way. Potencies of inconclusive entries are doubtful fits and often do not repeat.
Each molecule was assayed against Ubiquitin carboxyl-terminal hydrolase 1 (Homo sapiens) (UniProt O94782) (assay: Inhibitors of USP1/UAF1: Primary Screen). Conditions: recombinant USP1/UAF1, Ub-Rhodamine cleavage fluorescence; activity change, negative = inhibition: at 57.1 µM (top of the series).
Procedure, shortened: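 In this screen, compounds sit with the deubiquitinase complex (1nM) for 15 min at room temperature before Ub-Rho is added at 150nM final. Fluorescence rise is then followed for 6 reads every 60 seconds.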
`COc1ccc(C2CC(=O)NC(NC(=O)c3ccc(Br)cc3)=N2)c(OC)c1OC` (centres undefined) was tested, and the “activity change, negative = inhibition” value was inactive: -18.8%.
With `O=C(CS(=O)(=O)c1cccc2nsnc12)Nc1ccccc1` the Potency was inconclusive: 0.355 µM [inhibitor, full curve, poor fit].
With `O=C(c1ccccc1F)c1cc2c(cc1[N+](=O)[O-])OCCO2` the “activity change, negative = inhibition” value was inactive: -17.1%.
In the case of `CC(C(=O)N1CCOCC1)c1ccccc1` (centres undefined), the Potency is reported as inconclusive: 1.26 µM [inhibitor, full curve, poor fit].
In the case of `O=C(NCCCN1CCCCCC1)c1ccc(CS(=O)(=O)Cc2ccccc2F)o1`, the “activity change, negative = inhibition” value is reported as inactive: 3.78%.
In the case of `COc1cc(OC)cc(C(=O)Nc2nnc(Cc3ccc(OC)c(OC)c3)s2)c1`, the “activity change, negative = inhibition” value is reported as inactive: -19.3%.
In the case of `CC(=O)N(Cc1cccnc1)c1nc2c(F)cc(F)cc2s1`, the Potency is reported as inconclusive: 50.1 µM [inhibitor, partial curve, poor fit].
In the case of `COC/C=C/C1=CC2=CC(=O)C(C)(OC(=O)c3cnc4ccccc4n3)C(=O)C2=CN1c1ccccc1` (centres undefined), the Potency is reported as inconclusive: 20 µM [inhibitor, partial curve].
For `Cc1ccccc1OCc1nnc(SCC(=O)O)n1-c1ccccc1`, the “activity change, negative = inhibition” value was inactive: -1.37%.
With `COC(=O)CSc1nc(-c2ccccc2)cc(-c2ccco2)c1C#N` the “activity change, negative = inhibition” value was inactive: -16.4%.
For `COc1cccc(NS(=O)(=O)c2ccc3c(c2)C2C=CCC2C(c2ccc(C(=O)O)cc2)N3)c1` (centres undefined), the Potency was inconclusive: 28.2 µM [inhibitor, partial curve].
With `COc1ccc(Cl)cc1NS(=O)(=O)c1ccc2[nH]c3c(c2c1)CCCC3` the “activity change, negative = inhibition” value was inactive: -3.62%.
In the case of `CN(C(=O)c1ccc(NC(=O)Cc2cccc(NC(=O)C3CCCN(C(=O)C4CC4)C3)c2)cc1)C1CC1` (centres undefined), the Potency is reported as inconclusive: 50.1 µM [inhibitor, partial curve, poor fit].
With `O=S(=O)(Nc1ccccc1C(F)(F)F)c1ccc(N2CCCCS2(=O)=O)cc1` the “activity change, negative = inhibition” value was inactive: -10.9%.
In the case of `CCCOc1cccc(NC(=O)c2c(-c3ccccc3Cl)noc2C)c1`, the Potency is reported as inconclusive: 1.41 µM [inhibitor, full curve, poor fit].
In the case of `COc1ccc(C2=NN(C(=O)CCC(=O)O)C(c3ccccc3F)C2)cc1` (centres undefined), the “activity change, negative = inhibition” value is reported as inactive: -9.16%.
`COc1ccc(Cn2c(CCC(=O)NCc3cccc(Cl)c3)nc3cccnc32)cc1` was tested, and the “activity change, negative = inhibition” value was inactive: -25.5%.
`Cc1nc(SC2CC(=O)N(c3ccccc3)C2=O)n[nH]1` (centres undefined) was tested, and the “activity change, negative = inhibition” value was inactive: -0.878%.
In the case of `N#C/C(C(=O)c1ccccc1)=C1/CCCCCN1`, the “activity change, negative = inhibition” value is reported as inactive: -2.08%.
With `O=C(O)Cn1nnc(-c2ccc(OCc3cccc(C(F)(F)F)c3)cc2)n1` the Potency was inconclusive: 44.7 µM [inhibitor, partial curve, poor fit].
For `O=C(NCCc1ccccc1)C(c1ccccc1)N(C(=O)c1csnn1)C1CC1` (centres undefined), the Potency was inconclusive: 2 µM [inhibitor, partial curve].
In the case of `CCc1nnc(NS(=O)(=O)c2ccc(NC(=O)c3ccc(Cl)cc3)cc2)s1`, the “activity change, negative = inhibition” value is reported as inactive: -13.8%.
With `CN(c1ccc(O)cc1)c1nc(-c2ccccc2)cs1` the “activity change, negative = inhibition” value was inactive: -23.1%.
In the case of `O=C(Oc1cccnc1)c1ccc(Cl)cc1`, the “activity change, negative = inhibition” value is reported as inactive: -20.5%.
With `COc1cccc(-c2nc(NCC3CCCO3)c3ccccc3n2)c1O` (centres undefined) the Potency was inconclusive: 39.8 µM [inhibitor, partial curve].
In the case of `CCCC1=Nc2cc(C(=O)NC3CCCC3)ccc2Sc2ccc(C)cc21`, the Potency is reported as inconclusive: 7.08 µM [inhibitor, full curve].
In the case of `Cn1c(=O)n(-c2ccc3c(c2)OCO3)c2nc(-c3ccccc3)nc(C(N)=O)c21`, the “activity change, negative = inhibition” value is reported as inactive: -22.5%.
`CC1=C(C(=O)N(C)C)CC(CC(=O)NC(c2ccccc2)c2ccccc2)C(=O)N1Cc1ccc(F)cc1` (centres undefined) was tested, and the Potency was inconclusive: 0.1 µM [inhibitor, full curve, poor fit].
For `CCN(CC)CC(C)CNC(=O)c1cc(-c2ccc(Br)s2)nc2ccccc12` (centres undefined), the “activity change, negative = inhibition” value was inactive: -17.9%.
With `COc1cccc(CN(C(=O)c2oc3cc(C)ccc3c2C)C2CCS(=O)(=O)C2)c1` (centres undefined) the Potency was inconclusive: 7.94 µM [inhibitor, full curve, poor fit].
In the case of `Cc1cccc(NC2=C(NCCO)C(=O)c3ccccc3C2=O)c1`, the Potency is reported as active: 31.6 µM.
With `CC12CN3CCN(CC(C3)/C1=N\NC(=O)c1ccccc1N)C2` the Potency was inconclusive: 12.6 µM [inhibitor, partial curve, poor fit].
In the case of `CCN(CC)c1ccc(N=Cc2ccccc2[N+](=O)[O-])cc1`, the Potency is reported as inconclusive: 28.2 µM [inhibitor, partial curve].
`COc1cc(OC)c2ccc(=O)oc2c1C(CCN1CCN(c2ccccc2)CC1)c1ccc(N(C)C)cc1` (centres undefined) was tested, and the Potency was inconclusive: 28.2 µM [inhibitor, partial curve].
In the case of `Cn1c(O)c(/C=C2\C=Nc3ccccc32)sc1=Nc1ccc(C(=O)O)cc1`, the Potency is reported as inconclusive: 39.8 µM [inhibitor, partial curve].
In the case of `Cc1c(C(=O)N2CCCC2)oc2c1-c1nn(CC(=O)NCCCOC(C)C)cc1CC2`, the Potency is reported as inconclusive: 35.5 µM [inhibitor, single point] and inconclusive: 39.8 µM [inhibitor, single point].
In the case of `COc1cccc(C(=O)Nc2ccccc2C(=O)OCc2cc(=O)n3nc(C4CC4)sc3n2)c1`, the Potency is reported as inconclusive: 7.94 µM [inhibitor, partial curve].
In the case of `O=C(NC(=S)Nc1ccccc1N1CCCC1)c1ccccc1[N+](=O)[O-]`, the “activity change, negative = inhibition” value is reported as inactive: -14%.
With `CCOC(=O)/C(=C\c1cccnc1)C(=O)c1cc(C(C)=O)c(Nc2ccccc2)s1` the Potency was inconclusive: 25.1 µM [inhibitor, single point].
With `CC(=O)c1ccc(NC(=S)NC(C)c2ccc(Cl)cc2Cl)cc1` (centres undefined) the “activity change, negative = inhibition” value was inactive: -17.1%.
With `O=C1C=C(c2ccc(-c3ccccc3)cc2)C[C@@H](c2ccc(Cl)cc2)C1` the Potency was inconclusive: 5.62 µM [inhibitor, partial curve].
In the case of `CCCc1nc2c(s1)CCc1onc(-c3ccc(OC)cc3)c1-2`, the Potency is reported as inconclusive: 28.2 µM [inhibitor, partial curve].
With `CCOc1ccc(NC(=S)N2C3CCCC2CC(NC(=O)C2CC2)C3)cc1` (centres undefined) the Potency was inconclusive: 3.55 µM [inhibitor, partial curve].
`O=C(Nc1nc2ccc(S(=O)(=O)N3CCCC3)cc2s1)c1ccccn1` was tested, and the “activity change, negative = inhibition” value was inactive: -9.16%.
`CCN(CC)S(=O)(=O)c1ccc(N2CCOCC2)c(NC(=O)c2cc(=O)[nH]c3ccccc23)c1` was tested, and the Potency was inconclusive: 56.2 µM [inhibitor, single point].
In the case of `Cc1cc(Cl)nc2c(C(C)C)cccc12`, the “activity change, negative = inhibition” value is reported as inactive: -24.9%.
With `Cc1ccccc1/C=N/Nc1ccnc2cc(Cl)ccc12` the Potency was inconclusive: 35.5 µM [inhibitor, partial curve].
`Brc1cc2[nH]cnc2c2ccccc12` was tested, and the Potency was inconclusive: 15.8 µM [inhibitor, partial curve].
`CC(=O)c1ccc(N2CCN(S(=O)(=O)c3ccc4c5c3CC(=O)N5CC(C)S4)CC2)cc1` (centres undefined) was tested, and the Potency was inconclusive: 44.7 µM [inhibitor, partial curve, poor fit].
With `CN(C)CCN(Cc1ccccc1)S(=O)(=O)c1ccc2[nH]c(=O)ccc2c1` the “activity change, negative = inhibition” value was inactive: -23.3%.
In the case of `COc1ccccc1-n1ncc2c(=O)[nH]c(SCC(=O)Nc3ccc(Cl)cc3)nc21`, the Potency is reported as inconclusive: 3.55 µM [inhibitor, partial curve].
With `CCOC(=O)c1sc(NC(=O)c2cc(-c3ccccc3)nc3ccccc23)c(C#N)c1C` the “activity change, negative = inhibition” value was inactive: -20.7%.
In the case of `O=C(NC1CC(=O)N(c2cccc(F)c2)C1)C1CCCC1` (centres undefined), the Potency is reported as inconclusive: 7.94 µM [inhibitor, partial curve, poor fit].
With `COc1ccc2c(c1)Cc1c-2cc(Br)c(N)c1Br` the Potency was inconclusive: 0.1 µM [inhibitor, full curve, poor fit].
For `CCOC(=O)C1=C(O)/C(=C/c2ccc(OCC(=O)O)c(OCC)c2)SC1=Nc1ccc(OC)cc1`, the Potency was inconclusive: 44.7 µM [inhibitor, partial curve, poor fit].
With `O=C(Cn1ncc2c3ccccc3n(Cc3cccc(Cl)c3)c2c1=O)NCc1cccs1` the Potency was inconclusive: 31.6 µM [inhibitor, partial curve, poor fit].
For `CCC(OC(=O)c1nsc(Cl)c1Cl)C(=O)NCCc1ccccc1` (centres undefined), the Potency was inconclusive: 0.501 µM [inhibitor, partial curve, poor fit].
For `COc1ccc(C2=NOC(Cn3nc(C(=O)NCc4cccc(C(F)(F)F)c4)cc3-c3ccccc3)C2)cc1` (centres undefined), the Potency was inconclusive: 35.5 µM [inhibitor, partial curve, poor fit].
`O=C(NC1CCCCC1)C1CCCN(S(=O)(=O)c2cnc[nH]2)C1` (centres undefined) was tested, and the Potency was inconclusive: 0.794 µM [inhibitor, full curve, poor fit].
For `O=C(Cn1cnc2c(oc3ccccc32)c1=O)Nc1ccc(F)cc1F`, the Potency was inconclusive: 44.7 µM [inhibitor, single point].
For `CCSc1nnc(-c2sc3nnc(-c4ccccc4)c(-c4ccccc4)c3c2N)o1`, the Potency was active: 17.8 µM.
In the case of `CCN(Cc1ccccc1)C(=O)Cn1c(=O)n(-c2ccc(Cl)cc2)c(=O)c2c(C)c(C(=O)N(C)C)sc21`, the “activity change, negative = inhibition” value is reported as inactive: -16.6%.
For `c1ccc(Oc2ncnc3ccccc23)cc1`, the Potency was inconclusive: 50.1 µM [inhibitor, partial curve, poor fit].
For `O=c1cc2c(c(-c3ccccc3)n1Cc1ccccc1)[C@H](CCO)NC2`, the Potency was inconclusive: 0.251 µM [inhibitor, full curve, poor fit].
With `CCc1ccc([C@@H]2CC=C(C(=O)O)[C@H](c3cccc(Cl)c3)N2S(=O)(=O)c2ccc(C)cc2)cc1` the Potency was inconclusive: 39.8 µM [inhibitor, partial curve].
For `O=C(NC(=S)NC12CC3CC(CC(C3)C1)C2)c1ccc(F)cc1`, the “activity change, negative = inhibition” value was inactive: -10.2%.
`Cc1ccc2nc(CSc3nc(C)ccc3C#N)[nH]c2c1` was tested, and the “activity change, negative = inhibition” value was inactive: -11.6%.
For `COc1ccc(Nc2cc(C)c3ccccc3n2)cc1`, the “activity change, negative = inhibition” value was inactive: -20.6%.
In the case of `Cc1cc(NC(=O)CSc2nc3ccccc3n2CCC#N)no1`, the “activity change, negative = inhibition” value is reported as inactive: -1.89%.

Reference: PubChem BioAssay AID743255 (National Center for Advancing Translational Sciences (NCATS), 2014)
Further: nearly all actives have a fitted effect of over 60% in size.
On the % scale 0 is the no-effect control and ±100 the full control effect; potency means the concentration at half of the fitted maximal effect.
